The source of these data is patent US7390875B2 (Institut Pasteur de Lille, priority 2000, dated 2008).

A short description of data set [1]: general procedure: Fmoc solid-phase peptide synthesis; Fmoc-PAL-PEG-PS; HBTU/HOBt/DIEA. The note with it: whole synthesis.
Data set [2] in a line: general procedure: Fmoc solid-phase peptide synthesis; Fmoc-Lys(Boc2NN(Boc)CH2CO)-PAL-PEG-PS; Fmoc-PAL-PEG-PS; Rink amide MBHA PS; Rink amide AM-PS; HBTU/HOBt/DIEA. Conditions: whole synthesis; for final purity (method not given): scale of the general procedure 0.1-0.25 mmole; for isolated mass / isolated yield: scale 0.25 mmole.
Data set [3] is described as follows: general procedure: Fmoc solid-phase peptide synthesis; Rink amide resin MBHA PS; HBTU/HOBt/DIEA. Conditions: whole synthesis.

Regarding Ac-K(COCH2NHNH2)-ISQAVHAAHAEINEAGR-NH2, in data set [1] (scale 0.10 mmole), the isolated mass was found to be 74 mg and the isolated yield result was “yield 30%”. In the case of Ac-QYIKANSKFIGITELKK K(COCH2NHNH2)-NH2, the “final purity (method not given)” value in data set [2] came out at 97%.

In data set [3], “H2NNHCH2CO-K(COCH2NHNH2)-AKFEVNNPQVQRQAFNELIR-VVHQLLPESSLRKRKRSR-NH2” gave an isolated mass of 16.1 mg. The isolated yield result in data set [3] (scale of the general procedure 0.1-0.25 mmole) is “yield 8.5%”. As to H2N—VYKAL-NH2, in data set [2], the isolated mass was determined as 27.8 mg and the isolated yield stood at 13.3%. Take “H-DWQDYTSGPGIRYPKTFGWLWKLVK(COCH2NHNH2)-NH2”: the “final purity (method not given)” value in data set [2] stood at 90%. Still for that read-out and setting: the result for “H-EKGGLEGIYYSARRHRILDMYLEK(COCH2NHNH2)-NH2” reads 93%.

Turning to “H-K(COCH2NHNH2)AKFEVNNPQVQRQAFNELIRVVHQLLPESSLRKRKRSR-NH2”, in data set [1] (scale 0.1 mmole), the isolated mass is reported as 158 mg and the isolated yield stood at 26%. On to H-K(COCH2NHNH2)GAVVGGLGGYMLGSAMSR-NH2, for which, in data set [1] (scale 0.2 mmole), the crude mass is 360 mg and the isolated mass amounted to 117 mg.

As to “H-K(COCH2PSRENQNAVKIQKLSVVLRREQKHRVERLAFRNQSLPF-NH2”, in data set [1] (scale 0.1 mmole), the isolated mass is recorded as 120 mg and the isolated yield turned out to be 20%.

In data set [2], H-KVGFFKR-NH2 returned an isolated mass of 123 mg and an isolated yield of 36%. Take “H-SKWDDPWGEVLAWKFDPTLAYTYEAK(COCH2NHNH2)-NH2”: the “final purity (method not given)” value in data set [2] stood at 99%. Same read-out and setting: the value for “H-SVRPKVPLRAMTYKLAIDMSHFIKEKK(COCH2NHNH2)-NH2” was 100%. Same read-out and setting: the result for “H-YTYEAYARYPEELEASQACQRKRLEEGK(COCH2NHNH-2)-NH2” reads 93%.
